Test results taken from article PMC10096250, “Combined action of albumin and heparin regulates lipoprotein lipase oligomerization, stability, and ligand interactions” (PLOS ONE, 2023).
These are yes or no findings as the source states them, for the method shown. Some results given as binding are weak or reduced against the parent protein; the word gives no strength.

Chains of the proteins cited; added tags and fusions are not shown. Residues count along the entry.
UniProt P02769, residues 25-607: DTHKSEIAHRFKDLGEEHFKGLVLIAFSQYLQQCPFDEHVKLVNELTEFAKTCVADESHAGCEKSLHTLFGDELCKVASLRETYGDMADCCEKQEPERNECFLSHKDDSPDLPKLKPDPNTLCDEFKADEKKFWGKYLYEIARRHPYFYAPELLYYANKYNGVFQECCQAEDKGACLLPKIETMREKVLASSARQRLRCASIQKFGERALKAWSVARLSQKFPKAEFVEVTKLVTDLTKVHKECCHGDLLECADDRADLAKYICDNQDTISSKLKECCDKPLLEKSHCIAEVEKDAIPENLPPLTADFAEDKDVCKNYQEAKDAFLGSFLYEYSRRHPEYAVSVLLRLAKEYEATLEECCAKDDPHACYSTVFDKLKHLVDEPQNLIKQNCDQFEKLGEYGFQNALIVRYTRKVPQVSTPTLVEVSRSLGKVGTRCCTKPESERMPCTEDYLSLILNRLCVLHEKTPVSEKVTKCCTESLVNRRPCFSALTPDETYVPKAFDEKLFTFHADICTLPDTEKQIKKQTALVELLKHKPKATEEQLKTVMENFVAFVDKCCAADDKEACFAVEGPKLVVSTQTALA

T1: Human GPIHBP1 (human) (UniProt Q8IV16)
T1 sequence: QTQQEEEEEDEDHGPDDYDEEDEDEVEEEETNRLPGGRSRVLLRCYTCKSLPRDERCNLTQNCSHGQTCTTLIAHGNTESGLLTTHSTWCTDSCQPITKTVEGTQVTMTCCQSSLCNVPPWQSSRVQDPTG

T2: Bovine lipoprotein lipase (bovine), P11151
T2 chain: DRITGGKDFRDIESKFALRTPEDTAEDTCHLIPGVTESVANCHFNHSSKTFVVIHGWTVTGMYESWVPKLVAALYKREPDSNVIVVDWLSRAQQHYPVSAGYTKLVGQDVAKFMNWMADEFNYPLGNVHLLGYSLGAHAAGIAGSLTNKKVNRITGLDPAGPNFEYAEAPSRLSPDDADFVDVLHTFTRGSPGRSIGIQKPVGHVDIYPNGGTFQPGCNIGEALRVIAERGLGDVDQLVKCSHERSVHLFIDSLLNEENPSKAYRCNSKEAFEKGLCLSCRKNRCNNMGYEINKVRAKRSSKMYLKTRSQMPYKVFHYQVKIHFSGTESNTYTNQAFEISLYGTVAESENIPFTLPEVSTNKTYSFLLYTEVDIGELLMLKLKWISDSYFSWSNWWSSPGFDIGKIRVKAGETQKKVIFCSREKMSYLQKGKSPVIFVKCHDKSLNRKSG

B1: Bovine lipoprotein lipase, P11151 29-478 (enzyme)
chain: T2 chain
B2: Bovine lipoprotein lipase (enzyme, UniProt P11151 29-478, looked up)
chain: T2 chain
notes: lipoprotein lipase (LPL), bovine, purified from bovine milk; In the RICS experiments 10 nM of the LPL carried ATTO610 (NHS ester labelling) and 190 nM was unlabelled; it says that most experiments were done with bovine LPL; also called bLPL; bovine LPL; source: purified from bovine milk

Assays:
Human GPIHBP1 (human) = biological target: T1, Human GPIHBP1 (human); test: SPR; reference surface of a3: BSA flowed over amine-coupled GPIHBP1 without bLPL; 20 mM HEPES, 150 mM NaCl, pH 7.4; 25°C; both purified
[1] = biological target: B2; test: SPR; Biacore 3000; bLPL (1.7 fmol/mm2) held on immobilised anti-LPL monoclonal antibody 5D2; BSA flowed over; 20 mM HEPES, 150 mM NaCl, pH 7.4; 25°C; both purified
[2] = biological target: T2, Bovine lipoprotein lipase (bovine), …; test: raster image correlation spectroscopy (RICS); 200 nM LPL (10 nM LPL-ATTO610 + 190 nM unlabelled) with 10 IU/ml heparin, no BSA; 20 mM HEPES pH 7.4, 150 mM NaCl; room temperature; nsTEM of unlabelled LPL in like conditions; both purified; details: remark: other sources report otherwise
[3] = biological target: T2, Bovine lipoprotein lipase (bovine), …; test: raster image correlation spectroscopy (RICS); 200 nM LPL (10 nM LPL-ATTO610 + 190 nM unlabelled) with 50 or 2 mg/ml BSA, no heparin; 20 mM HEPES pH 7.4, 150 mM NaCl; room temperature, up to 2 h; nsTEM of unlabelled LPL in like conditions; both purified; details: remark: other sources report otherwise
[4] = biological target: B2; test: raster image correlation spectroscopy (RICS); 10 nM LPL with 50 mg/ml BSA, no heparin; 20 mM HEPES pH 7.4, 150 mM NaCl; room temperature; both purified
[5] = biological target: B2; test: raster image correlation spectroscopy (RICS); 200 nM LPL (10 nM LPL-ATTO610 + 190 nM unlabelled) with BSA (50 or 2 mg/ml) and 10 IU/ml heparin added after 15 min; 20 mM HEPES pH 7.4, 150 mM NaCl; room temperature; nsTEM of unlabelled LPL in like conditions; both purified

Molecule: Bovine serum albumin (from UniProt P02769 25-607)
- binding (Human GPIHBP1 (human)): no binding
- binding [1]: binds weakly

Molecule: B1
- binding [2]: binds
- binding [3]: binds

Molecule: B2
- binding [4]: binds weakly
- binding [5]: no binding (condition: with both BSA and 10 IU/ml heparin)
